For part of its entries the source gives two or more results. Only these are listed. The source may hold further records. The records of an entry do not match, cause unknown; they may come from other doses, times, organisms or constructs than stated.
Legend:
B16F10 cells = assay: In vitro cytotoxicity (MTT) assay, B16F10; details: B16F10, 10 μg/mL, 1-day exposure; listed as IA-trimer
purified human αvβ3 = purified human αvβ3 (Homo sapiens, UniProt P05106+P06756); assay: ELISA: competitive inhibition of biotinylated vitronectin binding to immobilized purified integrin αvβ3; details: compared to monovalent IA

**Q.** Which cell viability (B16F10 cells) does the source give for `O=C(NCCS(=O)(=O)N[C@@H](CNC(=O)c1ccc(OCCNC2=NCCCN2)cc1)C(=O)O)OCCN(CCOC(=O)NCCS(=O)(=O)N[C@@H](CNC(=O)c1ccc(OCCNC2=NCCCN2)cc1)C(=O)O)CCOC(=O)NCCS(=O)(=O)N[C@@H](CNC(=O)c1ccc(OCCNC2=NCCCN2)cc1)C(=O)O` [IA trimer] here?
**A.** About 90% and Less than 90%

**Q.** Which “improvement in receptor affinity (IC50) over parent compound IA” value (purified human αvβ3) does the source give for `NC(CCCCCC(=O)NCCS(=O)(=O)N[C@@H](CNC(=O)c1ccc(OCCNC2=NCCCN2)cc1)C(=O)O)C(=O)NCCS(=O)(=O)N[C@@H](CNC(=O)c1ccc(OCCNC2=NCCCN2)cc1)C(=O)O` (some centres unmarked) [bivalent IA] here?
**A.** over 50 fold and 50 fold

Reference: US9833520B2, “Labeled, non-peptidic, multivalent integrin antagonist compounds; methods for synthesis and uses thereof” (The Methodist Hospital Research Institute, priority 2011, dated 2017)
